Assay results reported in patent US6994856 (Genentech, dated 2006).
No constants are given. Whether binding was seen depends on the method and setting. For some of these results: Binding seen in cells or lysates may run through a third protein. Some binding calls cover weakened binding; strength is not graded here. Sequences can lack the tags named with a protein.

How the values were obtained:
ErbB4.Fc [1] = target: T1, ErbB4.Fc (UniProt Q15303 26-651, limits assumed); assay: displacement binding assay, Fig. 7
T1 construct: also called soluble form of ErbB4 receptor; immobilized soluble ErbB4 receptor; not shown: Fc part, not described; the protein was captured on the plate by goat anti-human antibody
T1 sequence (looked up): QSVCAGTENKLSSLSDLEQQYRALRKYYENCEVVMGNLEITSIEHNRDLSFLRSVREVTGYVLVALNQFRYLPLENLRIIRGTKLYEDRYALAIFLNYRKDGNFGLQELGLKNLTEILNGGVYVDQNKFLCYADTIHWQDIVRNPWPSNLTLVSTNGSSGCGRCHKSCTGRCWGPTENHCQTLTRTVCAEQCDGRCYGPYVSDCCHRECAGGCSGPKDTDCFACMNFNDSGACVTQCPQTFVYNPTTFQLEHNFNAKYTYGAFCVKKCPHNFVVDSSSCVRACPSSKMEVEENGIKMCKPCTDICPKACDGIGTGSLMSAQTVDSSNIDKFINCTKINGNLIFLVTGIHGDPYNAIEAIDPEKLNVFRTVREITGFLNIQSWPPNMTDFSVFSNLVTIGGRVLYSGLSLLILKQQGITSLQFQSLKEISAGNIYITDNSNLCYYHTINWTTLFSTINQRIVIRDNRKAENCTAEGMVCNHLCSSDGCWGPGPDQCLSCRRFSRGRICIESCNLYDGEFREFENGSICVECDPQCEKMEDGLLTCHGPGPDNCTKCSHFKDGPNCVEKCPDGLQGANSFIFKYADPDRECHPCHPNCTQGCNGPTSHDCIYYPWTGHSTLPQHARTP

[2] = target: human ErbB4 receptor on cells (human) (UniProt Q15303); assay: FACS on K562^erbB4 cells, anti-gD detection
[3] = target: human ErbB4 receptor on cells (human) (UniProt Q15303); assay: restates the FACS result of the preceding section
ErbB4.Fc [4] = target: T1, ErbB4.Fc; assay: co-immunoprecipitation in vitro

binding (ErbB4.Fc [1]): binds | binding [2]: binds | binding [3]: binds | binding (ErbB4.Fc [4]): binds
B1: NRG3^EGF.Fc (Fc fusion, not shown: small tags and cut ends; a dimerising Fc or GST)
chain: ERSEHFKPCRDKDLAYCLNDGECFVIETLTGSHKHCRCKEGYQGVRCDQFLPKTDSILSDP
modifications: radio-iodinated (125I, lactoperoxidase method) where used as tracer
